The data set is described as follows: FT-IR MS gas phase composition. The conditions noted are these: Table 3.

Regarding `CC(=O)O.N` [NH4OAc, ammonium acetate], the “reduction in methanol/TPM” value (FT-IR gas phase) turned out to be 24%. Further, the “MEOH/TPM, change” value (MS gas phase, FT-IR, change from control) is −24%. Further, where the note is “filler additive, change from control”, the “TPM, change” value turned out to be 9%.

(Values after patent US8555897B2, “Method of making a cigarette and method of reducing cytotoxicity in tobacco smoke” (priority 2005, dated 2013).)
